{
  "source": "PubChem BioAssay AID248",
  "about": "(DTP/NCI, 2004)",
  "tested_on": "L1210 leukemia ip in BDF1 mice, survival T/C",
  "assay": "NCI In Vivo Anticancer Drug Screen. Data for tumor model L1210 Leukemia (intraperitoneal) in B6D2F1 (BDF1) mice",
  "conditions": "T/C endpoint: mean survival time, higher T/C = longer survival",
  "key": {"[1]": {"conditions": "dose: 100.0 mg/kg/injection, schedule: Q01DX001 (ip), vehicle: saline"}, "[2]": {"conditions": "dose: 150.0 mg/kg/injection, schedule: Q01DX001 (ip), vehicle: saline"}, "[3]": {"conditions": "dose: 400.0 mg/kg/injection, schedule: Q01DX009 (ip), vehicle: Klucel (hydroxypropylcellulose) (HPC)"}},
  "note": "The list is a part of this screen's results and no random one: it gathers tests that were run many times, whatever their T/C, doses with no T/C, and many T/C values between a quarter and a half above the control. Other doses and runs of a compound stand elsewhere. T/C: endpoint of the treated group in % of that of the vehicle group. Some entries give survivors of the animals treated and no T/C: the source files T/C as zero there, which appears to mark a toxic dose or a test without result, not a measured value. Some survivor counts are full or nearly so, which does not show that the dose was tolerated: the source hardly ever lists a survival T/C far under the control, and the zero likely stands for such cases as well. Survivors were counted at the toxicity check, usually on the fifth day, unless a day is given; later deaths do not show. Schedules are NCI's codes, taken here to give the interval after Q, in days (D) or hours (H), and the number of doses after X. Where survival is the endpoint, this PubChem deposit counts one and a half times the control or more as active, and values a quarter to a half above the control carry no call in these data; other NCI protocols may use other cut-offs. Some entries hold several experiments; their values stand side by side, smallest first. Some T/C values carry the count of animals alive at the toxicity check (mostly the fifth day); where none is given, no animal had died by that day.",
  "data": [
    {"smiles": "Cc1cc(C(C(N)=O)c2ccccc2)ccc1N(CCCl)CCCl", "note": "(stereo unspecified)", "values": [
      {"measurement": "T/C", "setting": "dose: 7.5 mg/kg/injection, schedule: Q01DX015 (ip), vehicle: carboxymethylcellulose (CMC)", "result": "128 % of control"},
      {"measurement": "T/C", "setting": "dose: 8.0 mg/kg/injection, schedule: Q01DX009 (ip), vehicle: carboxymethylcellulose (CMC)", "result": "131 % of control"},
      {"measurement": "T/C", "setting": "dose: 10.0 mg/kg/injection, schedule: Q01DX009 (ip), vehicle: Klucel (hydroxypropylcellulose) (HPC)", "result": "131 % of control"},
      {"measurement": "T/C", "setting": "dose: 10.0 mg/kg/injection, schedule: Q04DX003 (ip), vehicle: acetone", "result": "129 % of control"},
      {"measurement": "T/C", "setting": "dose: 15.0 mg/kg/injection, schedule: Q01DX015 (ip), vehicle: carboxymethylcellulose (CMC)", "result": "139 % of control"},
      {"measurement": "T/C", "setting": "dose: 16.0 mg/kg/injection, schedule: Q01DX009 (ip), vehicle: carboxymethylcellulose (CMC)", "result": "127 % of control"},
      {"measurement": "T/C", "setting": "dose: 16.5 mg/kg/injection, schedule: Q04DX003 (ip), vehicle: acetone", "result": "126 % of control"},
      {"measurement": "T/C", "setting": "dose: 22.5 mg/kg/injection, schedule: Q01DX015 (ip), vehicle: carboxymethylcellulose (CMC)", "result": "125 % of control"},
      {"measurement": "T/C", "setting": "dose: 30.0 mg/kg/injection, schedule: Q01DX015 (ip), vehicle: carboxymethylcellulose (CMC)", "result": "128 % of control"},
      {"measurement": "T/C", "setting": "dose: 32.0 mg/kg/injection, schedule: Q01DX009 (ip), vehicle: carboxymethylcellulose (CMC)", "result": "143 % of control"},
      {"measurement": "T/C", "setting": "dose: 33.0 mg/kg/injection, schedule: Q04DX003 (ip), vehicle: acetone", "result": "129 [5 of 6 alive], 132, 138 % of control"},
      {"measurement": "survivor count", "setting": "dose: 60.0 mg/kg/injection, schedule: Q01DX015 (ip), vehicle: carboxymethylcellulose (CMC)", "result": "6 of 6"},
      {"measurement": "T/C", "setting": "dose: 66.0 mg/kg/injection, schedule: Q01DX001 (ip), vehicle: saline", "result": "129 % of control [4 of 6 alive]"},
      {"measurement": "survivor count", "setting": "dose: 75.0 mg/kg/injection, schedule: Q01DX009 (ip), vehicle: saline with Tween-80", "result": "0 of 6"},
      {"measurement": "survivor count", "setting": "dose: 90.0 mg/kg/injection, schedule: Q01DX015 (ip), vehicle: carboxymethylcellulose (CMC)", "result": "5 of 6"},
      {"measurement": "T/C", "setting": "[1]", "result": "130 % of control [5 of 6 alive]"},
      {"measurement": "survivor count", "setting": "[1]", "result": "3 of 6"},
      {"measurement": "T/C", "setting": "dose: 100.0 mg/kg/injection, schedule: Q04DX003 (ip), vehicle: acetone", "result": "132 % of control"},
      {"measurement": "survivor count", "setting": "dose: 128.0 mg/kg/injection, schedule: Q01DX009 (ip), vehicle: carboxymethylcellulose (CMC)", "result": "0 of 6"},
      {"measurement": "T/C", "setting": "dose: 133.4 mg/kg/injection, schedule: Q01DX001 (ip), vehicle: carboxymethylcellulose (CMC)", "result": "129 % of control"},
      {"measurement": "T/C", "setting": "[2]", "result": "128 % of control"},
      {"measurement": "survivor count", "setting": "[2]", "result": "2 of 6"},
      {"measurement": "survivor count", "setting": "dose: 150.0 mg/kg/injection, schedule: Q01DX009 (ip), vehicle: saline with Tween-80", "result": "0 of 6"},
      {"measurement": "T/C", "setting": "dose: 200.0 mg/kg/injection, schedule: Q01DX001 (ip), vehicle: carboxymethylcellulose (CMC)", "result": "129 and 137 % of control"},
      {"measurement": "survivor count", "setting": "dose: 200.0 mg/kg/injection, schedule: Q01DX001 (ip), vehicle: saline", "result": "3 of 6"},
      {"measurement": "survivor count", "setting": "dose: 225.0 mg/kg/injection, schedule: Q04DX003 (ip), vehicle: acetone", "result": "4 of 6"},
      {"measurement": "survivor count", "setting": "dose: 400.0 mg/kg/injection, schedule: Q01DX001 (ip), vehicle: carboxymethylcellulose (CMC)", "result": "2 of 4"},
      {"measurement": "survivor count", "setting": "dose: 400.0 mg/kg/injection, schedule: Q01DX001 (ip), vehicle: saline", "result": "0 of 6"}
    ]},
    {"smiles": "CCS(=O)(=O)/C=C/c1cccs1", "values": [
      {"measurement": "survivor count", "setting": "[3]", "result": "0 of 6"}
    ]},
    {"smiles": "CCCCCCCCN(C)N=Nc1ccc(C(N)=O)cc1", "values": [
      {"measurement": "T/C", "setting": "dose: 266.0 mg/kg/injection, schedule: Q01DX009 (ip), vehicle: Klucel (hydroxypropylcellulose) (HPC)", "result": "135 % of control"},
      {"measurement": "T/C", "setting": "[3]", "result": "130 % of control"}
    ]}
  ]
}
